Test results published in US20160017004A1.
Results are given in words; binding and its absence hold for the method and conditions named. Some results given as binding are weak or reduced against the parent protein; the word gives no strength.

Biological target: recombinant knob (without ELP) (adenovirus serotype 5) (UniProt P11818)
Assay: non-denaturing PAGE at 4 C (self-association)

B1: recombinant knob (without ELP) (protein)
chain: GAITVGNKNNDKLTLWTTPAPSPNCRLNAEKDAKLTLVLTKCGSQILATVSVLAVKGSLAPISGTVQSAHLIIRFDENGVLLNNSFLDPEYWNFRNGDLTEGTAYTNAVGFMPNLSAYPKSHGKTAKSNIVSQVYLNGDKTKPVTLTITLNGTQETGDTTPSAYSMSFSWDWSGHNYINEIFATSSYTFSYIAQE
- binding: binds
